Among all 53,000 sequences or so, about 3,700 (7%) were called active.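 How the source made its calls: active means gene knockdowns whose robust z-score for IL-1 alpha signal is at least 2 or at most -2, so actives lie on both sides; inactive means the rest.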 The list shows a part of the results.

A short description of the experiment: Components of the Cytosolic LPS Sensing Pathway: Gene Identification via Genome-wide siRNA Screen.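 Further: robust z of the log signal after scaling to non-targeting control siRNA wells of the plate.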 To be noted: RAW264.7 macrophages, IL-1a HTRF, actives lie on both sides, screened at 100 nM (by protocol), cells primed 5 h with Pam3CSK4 first. The gist of the method:
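Knockdown: 100 nM siRNA, 48h, RAW264.7. Stimulation: Pam3CSK4 5 h, then LipidA via TransIT-TKO 24 h. Output: supernatant IL-1a HTRF, negative-control-normalized, log robust z-score; viability by CellTiter-Glo.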
A general note: TR-FRET usually uses a lanthanide donor and a delayed reading to cut background.
On to GGCAAUUUUUACACAGAAATT against Pink1, for which the z-score was inactive: -0.925.
Then GGGAACAAGAUGCUCUGUGTT against Sapcd1, with inactive: -0.15; and CCUAUACAAAGGGAAGUGCTT against Rspo4, with inactive: -0.797.
Under GGUUUAUCAGAAAGCCUCGTT against Dlgap1 stands inactive: 0.48.
Then GGAAAUGGUUAACAUCAUUTT against Mtmr9, with inactive: 0.0103; and CGGCAGUCGUGAGACAUAUTT against Camk1d, with inactive: -1.01; and CCAUGUGAAUGUCUUUAUUTT against Slc6a20a, with inactive: 0.943.
Turning to GGCCUGUUUUGUACUUUUATT against Polr3gl, the z-score was inactive: 0.149.
Under GGUUCUACAUGUGAAACAATT against Zfp143 stands active: -2.15; under GCUAUUAUCAUUGUGCAAUTT against Tas2r125, inactive: -0.0849.
Then GGAGACACUUUCCGGAUUATT against Cbl, with inactive: -0.361; and CCUGACUCGUCUCAAUAAATT against Ccdc157, with inactive: -0.0789.
Under GGACCAUACUGUUUGAUUATT against Msl3 stands inactive: 0.137; under GGGUGAUUGAUCACUACUUTT against Olfr279, inactive: 0.784.
With GGUUUCAGAAGACUCAGUATT against Dlx5, the z-score is inactive: -0.823.
Under GGAGUUGAGGUGAUUAUCUTT against Olfr1222 stands active: -2.33; under GGCCCUUCUGGACUAUCAUTT against Ccdc83, active: 3.39.
For the sequence GCCCUUAAAACAUAACCACTT against Fgf9, the z-score is inactive: 0.615.
Under GCAGUGGUAGAACAUCCAATT against Bhmt2 stands inactive: 0.585; under CCGAUGCCAUCAAGUUUGATT against Rps4l, inactive: 0.527; under GGCUUGAUCUUCGUAGUGGTT against Arf1, inactive: 0.132.
Then GGAGAAACUCAACUCUCUCTT against Csrnp3, with inactive: -0.255.
Under CCACCAACCGUUAGGUUUUTT against Ube2b stands inactive: 1.98; under GGACGGUAACAACUACAAUTT against Polg, inactive: 1.63.
On to “CCUAAGCUGACUCAUAUUGTT against 1700018F24Rik”, for which the z-score is inactive: -0.663.
Under GCAACCAUUCUGGUAUUACTT against Zfp108 stands inactive: 0.904; under GGACAUGAAUGAAACCUUCTT against Cables1, inactive: -1.1; under GGAUGAGGAAAAUGUGUCUTT against Kndc1, inactive: -1.22.
Then CCAAUAAGAGUGCUGAUGGTT against Mrtfa, with inactive: -0.241.

Source of the values: PubChem BioAssay AID1508600 (Functional Genomics Laboratory (NCATS/FGL), 2020).
